# Test results as given in patent US20230096137A1, “COMPOSITION FOR LITHOGRAPHY AND PATTERN FORMATION METHOD” (Mitsubishi Gas Chemical Company, Inc., priority 2020, published 2023).
# Assays:
# [1] = EUV sensitivity - TMAH aqueous solution development; conditions: resist MAR1 on 100 nm underlayer film, 2.38% TMAH development 60 seconds
# [2] = Etching resistance relative to novolac PSM4357 underlayer film; conditions: Ar/CF4/O2 50:5:5 sccm, 50 W, 20 Pa, 2 min; vs novolac PSM4357
SMILES,Sensitivity [1] [mJ/cm2],Etch resistance [2]
CC(C)(COc1c(I)cc(N2CC=CC2)cc1I)COc1c(I)cc(N2CC=CC2)cc1I [BMI-1],19,C (The difference in etching rate is larger than 10% as compared with that of the underlayer film of novolac in terms of the ratio to novolac.)
Oc1ccc(-c2ccc(O)c(C(c3cc(-c4ccc(O)cc4)ccc3O)c3cc(I)cc(I)c3O)c2)cc1 [BisB-2],23,B (The difference in etching rate is within ±10% as compared with that of the underlayer film of novolac in terms of the ratio to novolac.)
Oc1ccc2c3c(ccc2c1)Oc1ccc2cc(O)ccc2c1C3c1cccc(I)c1 [XbisN-1],24,A (The difference in etching rate is smaller than that of the underlayer film of novolac by 10% or more in terms of the ratio to novolac.)
Oc1ccc2c3c(ccc2c1I)Oc1ccc2c(I)c(O)ccc2c1C3c1ccc(-c2ccccc2)cc1 [XBisN-3],23,A (The difference in etching rate is smaller than that of the underlayer film of novolac by 10% or more in terms of the ratio to novolac.)
"Oc1ccc2c3c(ccc2c1)Oc1ccc2cc(O)ccc2c1C3c1ccc(-c2ccccc2)cc1 [XBisN-C1, reference compound]",31,A (The difference in etching rate is smaller than that of the underlayer film of novolac by 10% or more in terms of the ratio to novolac.)
Cc1cc(C(c2ccc(I)cc2)c2cc(C)c(O)c(C)c2)cc(C)c1O [BisB-1],25,B (The difference in etching rate is within ±10% as compared with that of the underlayer film of novolac in terms of the ratio to novolac.)
